# The list shows a part of the results. Shown are side measurements of this screen, not its main read-out; they come without a call. Compounds called inactive in the main read-out are mostly missing here. Potencies come from curve fits of mixed quality, noted in brackets.
# Assay: qHTS Assay for Lipid Storage Modulators in Drosophila S3 Cells;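 on cell number change: cells counted by Cell Tracker Red CMTPX staining in the red channel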
# Details: BODIPY lipid droplet fluorescence, 18-24 h; for cell number change: measured here: cell count max response, cells fed with added oleic acid
# In short: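 Drosophila S3 cells got compounds at several concentrations plus oleic acid (400 uM solution). Laser-scanning cytometry with 488 nm excitation read lipid droplets at 500-530 nm and cells at 575-640 nm. Percent activity was relative to 20 uM Triacsin C.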
# [1] = measured here: lipid fluorescence (Fed channel) AC50, cells fed with added oleic acid
# [2] = measured here: cell number channel AC50, cells fed with added oleic acid
Compound,cell number change [%],AC50 [1],AC50 [2]
NC(=S)n1[nH]c(-c2ccc([N+](=O)[O-])cc2)c(N=Nc2cccc([N+](=O)[O-])c2)c1=O,-27.1,,
COC(=O)c1ccc(CSc2ncnc3ccccc23)o1,18.7,"6.51 µM [falling, single point]",
O=C1C=C(NC(=O)Nc2ccc(Cl)c(Cl)c2)CCC1,-31,"6.51 µM [rising, single point]","0.259 µM [falling, full curve, poor fit]"
Cc1cc(C)n(CCCNC(=O)C2CC(=O)N(Cc3ccccc3)C2)n1 (stereo not drawn),113,,"7.31 µM [rising, partial curve]"
COc1ccc(OC)c(/C=C/C(=O)OCC(=O)N2CCCC2)c1,0.313,,"0.00517 µM [falling, full curve, poor fit]"
Cc1ccc(NS(=O)(=O)c2cc(C(N)=O)ccc2C)cc1,40.6,"1.3 µM [rising, partial curve]","8.2 µM [rising, partial curve, poor fit]"
COC(=O)CC/C(O)=C1\C(=O)CC(C)(C)CC1=Nc1ccccc1OC,27.5,"29.1 µM [rising, single point]",
CCC(=O)c1ccc(OCC(=O)OC(C)C(=O)N2CCc3ccccc32)cc1 (stereo not drawn),22,,
CC(C)c1ccc(NC(=O)CCNS(=O)(=O)c2cccc3nonc23)cc1,-30.1,,"20.6 µM [falling, single point]"
CCOC(=O)c1ccccc1NC(=O)COC(=O)CCNS(=O)(=O)c1cccs1,24.1,,
Cc1nn(C(C)CC(=O)O)c(C)c1Br (stereo not drawn),-103,"5.8 µM [falling, partial curve]","25.9 µM [falling, partial curve]"
CCC(=O)[C@@]1(C)[C@H](C)C[C@H]2[C@@H]3CCC4=CC(=O)C=C[C@]4(C)[C@H]3[C@@H](O)C[C@@]21C,63.4,"1.64 µM [rising, partial curve]","2.06 µM [rising, full curve]"
O=C(Cn1cncn1)N1CCN(c2ccc(F)cc2)CC1,-17.5,"0.82 µM [falling, full curve, poor fit]",
Cc1nn(C)cc1CN(C)Cc1ccc(OCC(O)CN2CCCCC2)cc1 (stereo not drawn),20.2,,
CC(=O)c1cccc(NC(=O)/C(=C/c2ccncc2)NC(=O)c2ccccc2)c1,19.2,"14.6 µM [falling, partial curve, poor fit]",
Cc1ccc(S(=O)(=O)N2CCOCC2)cc1NC(=O)c1cc([N+](=O)[O-])ccc1N1CCOCC1,35.6,"14.6 µM [rising, partial curve]","14.6 µM [rising, single point]"
CC(=O)c1cccc(S(=O)(=O)N2CCC(C(=O)N(C)Cc3ccc(Cl)s3)CC2)c1,7.55,"4.11 µM [falling, single point]",
CC12CCC(=O)N1C(C(=O)OCC(=O)Nc1sccc1C#N)CS2 (stereo not drawn),34.1,"0.731 µM [falling, full curve]","0.366 µM [rising, full curve]"
COc1ccc(NC(=O)Nc2nc3c(s2)CCCC3)cc1,-31.7,"32.6 µM [falling, partial curve, poor fit]","32.6 µM [falling, single point]"
O=C(O)Cn1cc(C(=O)C2CC2)c2ccccc21,-165,,"29.1 µM [falling, partial curve]"

# An excerpt from above, showing only cell number change [%] and AC50 [1].
Compound,cell number change [%],AC50 [1]
COc1ccc(OC)c(/C=C/C(=O)OCC(=O)N2CCCC2)c1,0.313,
Cc1ccc(NS(=O)(=O)c2cc(C(N)=O)ccc2C)cc1,40.6,"1.3 µM [rising, partial curve]"
COC(=O)CC/C(O)=C1\C(=O)CC(C)(C)CC1=Nc1ccccc1OC,27.5,"29.1 µM [rising, single point]"
CCC(=O)c1ccc(OCC(=O)OC(C)C(=O)N2CCc3ccccc32)cc1 (stereo not drawn),22,

# Remaining list, next part

Compound,cell number change [%],AC50 [1],AC50 [2]
CCOC(=O)c1ccccc1NC(=O)Cn1cnc2c(oc3ccccc32)c1=O,5.85,"4.11 µM [rising, single point]","0.461 µM [rising, partial curve, poor fit]"
CC(=O)N1CC(=O)N(CC(=O)Nc2ccc(Br)cc2)C1=S,-5.04,"0.206 µM [rising, single point]",
CCc1c(C(=O)NC(C)C2CCCO2)csc1C (stereo not drawn),-28.2,,
Cc1ccc(C(=O)C=CNNC(=O)c2ccccc2)cc1,-12.2,,
COc1ccc(CCNS(=O)(=O)c2cccc([N+](=O)[O-])c2)cc1,-5.51,"0.731 µM [falling, partial curve, poor fit]",
CNC(=O)c1cc2cc(Br)ccc2s1,49.7,"0.0517 µM [rising, partial curve, poor fit]","0.206 µM [rising, full curve, poor fit]"
COc1ccc(NC(=O)c2cc(F)c(F)cc2Cl)cc1Cl,20.9,"3.66 µM [rising, full curve, poor fit]",
CN(Cc1ccc(F)cc1)S(=O)(=O)c1nnc(NC(=O)c2ccccc2Br)s1,-5.77,"6.51 µM [falling, single point]",
Cc1ccc(-c2nnc(-c3ccc(NC(=O)Cc4cccs4)cc3)o2)cc1,-8.69,,"2.31 µM [falling, single point]"
CC(=O)c1c(C)[nH]c(C(=O)Nc2ccc(Cl)cc2F)c1C,14,"0.13 µM [falling, full curve]",
COc1ncccc1C(=O)NC1CCCc2c1cnn2-c1ccc(C)c(C)c1 (stereo not drawn),-25.5,"0.651 µM [falling, partial curve, poor fit]","0.291 µM [falling, full curve]"
Cc1cc(C)nc(N/N=C/c2ccncc2)n1,-13.9,,"0.231 µM [falling, full curve, poor fit]"
COc1ccccc1NC(=S)NC(NC(C)=O)C(Cl)(Cl)Cl (stereo not drawn),-5.66,,
O=C(Nc1cccnc1)c1c(O)c2cccc3c2n(c1=O)CC3,-5.68,"25.9 µM [rising, single point]",
NC1=NC(=O)/C(=C/c2ccc(Br)cc2)S1,8.39,"0.651 µM [falling, full curve, poor fit]",
O=C(CCn1cnc2ccccc2c1=O)Nc1nc(-c2ccc(Br)cc2)cs1,-36.6,"0.731 µM [falling, full curve, poor fit]","0.731 µM [falling, full curve, poor fit]"
COC(=O)c1sc(S(=O)(=O)N2CCCCC2)c(C(=O)OC)c1C,2.73,"29.1 µM [rising, single point]",
Cc1ccc(-n2nc3c(=O)n(CCCC(=O)NCc4ccccc4C)nc(C)c3c2C)cc1,-43.7,"29.1 µM [falling, single point]",
O=C(Cn1nc(-c2ccccc2)ccc1=O)Nc1ccc(-n2cnnn2)cc1,0.49,"0.0291 µM [falling, full curve, poor fit]",
Cc1ccc(C)c(NC(=O)CSc2nnc(CCNC(=O)OC(C)(C)C)o2)c1,-7.88,"14.6 µM [rising, partial curve]",

Compound,cell number change [%],AC50 [1],AC50 [2]
O=C(Nc1ccc(Cl)cc1)C1=Cc2ccccc2OC1,65.3,"23.1 µM [falling, single point]","29.1 µM [rising, single point]"
O=C(NCCCN=C1NS(=O)(=O)c2ccccc21)c1ccc(S(=O)(=O)N2CCCCC2)cc1,,"18.4 µM [falling, single point]",
CS(=O)(=O)N(CC(=O)N1CCN(Cc2ccccc2)CC1)c1ccccc1F,7.72,"0.92 µM [falling, full curve, poor fit]",
Cc1ccccc1N1CCN(C2CCCN(C(=O)c3cnsn3)C2)CC1 (stereo not drawn),3.67,"0.82 µM [rising, single point]",
CC(C)C(=O)N1CCC(CN=Cc2c(O)n(C3CCCCC3)c(=O)n(C3CCCCC3)c2=O)CC1,-27.2,"29.1 µM [falling, single point]",
CN(C)c1nc(OCCOC(=O)COc2ccc(Cl)cc2Cl)nc(N(C)C)n1,7.94,"20.6 µM [rising, single point]",
Cc1ccc(C(=O)NCCCCNC(=O)c2ccc(C)o2)o1,27.2,"18.4 µM [rising, single point]",
COCCn1c(=O)[nH]c2cc(C(=O)N3CCN(c4cccc(C(F)(F)F)c4)CC3)ccc2c1=O,35.5,,"3.66 µM [rising, partial curve, poor fit]"
Cc1ccc(S(=O)(=O)N2CCOCC2)cc1NC(=O)COc1cccc(Oc2ccccc2)c1,6.78,"3.66 µM [rising, single point]",
CC(C)(C)c1ccc(C(=O)NC(=S)NNC(=O)c2cccs2)cc1,-13.2,,
CC(OC(=O)CCCN=C1NS(=O)(=O)c2ccccc21)C(=O)Nc1ccc(F)c(F)c1F (stereo not drawn),25,,"0.00461 µM [rising, full curve, poor fit]"
CCOc1cc(C2NC(=O)NC2=O)ccc1O (stereo not drawn),5.46,"0.206 µM [rising, single point]",
Cc1cc(C(C)(C)C)ccc1OCCN(C)C,2.66,"0.092 µM [falling, full curve]",
COc1ccc(NC(=O)c2ccccn2)cc1OC,-10.9,,
COc1ccc(N2C(=O)CC(c3ccccc3)CC2=O)cc1,14.3,"0.0651 µM [falling, full curve, poor fit]","0.092 µM [falling, full curve]"
C/C(CC(=O)Nc1cccc(Cl)c1Cl)=N\NC(=O)C(=O)NC1CCCCC1,28.6,"0.13 µM [falling, partial curve, poor fit]",
CN(C)c1cccc(C(=O)Nc2nnc(Cc3ccccc3)s2)c1,5.86,,
CCOC(=O)C1CCCN(C(=O)c2cncc(Br)c2)C1 (stereo not drawn),,"4.11 µM [falling, single point]","6.51 µM [falling, single point]"

# — PubChem BioAssay AID2685 (National Center for Advancing Translational Sciences (NCATS), 2010)
